Nine compounds from the supplement of paper PMC8007513 can be followed below.

Molecules are shown by their SMILES. The list shows a part of the results. Many values rest on one well or one pass, so single values are uncertain.

The subject of this assay is Saccharomyces cerevisiae BY4743. The assay is described as follows: growth (OD600) with compound + IPBC relative to untreated control; higher = less growth inhibition. The following applies: compound concentration: 133 uM; IPBC concentration: 0.5 ug/ml; 20 h. Here is the method:
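NMCCC compounds (133 uM) combined with IPBC (0.5 ug/ml) against Saccharomyces cerevisiae BY4743 in YPD, 96-well plates. Growth was read as OD600 at 20 h and expressed as % of the untreated control. Single pass.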
Consider `Cc1cc2nc(O)c(O)nc2cc1S(=O)(=O)NCc1ccco1` + CCCCNC(=O)OCC#CI [3-iodo-2-propynyl butylcarbamate (IPBC)], for which the growth was 112%.
As for `O=C(CN(c1cc(C(F)(F)F)ccc1Cl)S(=O)(=O)c1ccccc1)N1CCOCC1` + CCCCNC(=O)OCC#CI [3-iodo-2-propynyl butylcarbamate (IPBC)], the figure is 96.4%; as for `COc1cc(NC(=O)NCc2c(C)nn(C)c2C)cc(OC)c1OC` + CCCCNC(=O)OCC#CI [3-iodo-2-propynyl butylcarbamate (IPBC)], 97.7%.
As for `CC(C)CC[N]1C(=CC(=C1C)C(=O)CN2\N=C(/C=C\C2=O)C3=CC=CC=C3)C` + CCCCNC(=O)OCC#CI [3-iodo-2-propynyl butylcarbamate (IPBC)], the figure is 85.6%; as for `CN(C)C1(CCCCCC1)CNC(=O)CN2\N=C3\CCCCCN3C2=O` + CCCCNC(=O)OCC#CI [3-iodo-2-propynyl butylcarbamate (IPBC)], 96.8%.
As for `COc1ccccc1OCCn1c(=O)oc2ccc(C)cc21` + CCCCNC(=O)OCC#CI [3-iodo-2-propynyl butylcarbamate (IPBC)], the figure is 99.6%.
`Cc1ccc(OCC(=O)NCCc2ccc(F)cc2)c2c1C(C)CC2=O` (centres undefined) + CCCCNC(=O)OCC#CI [3-iodo-2-propynyl butylcarbamate (IPBC)]: the growth came out at 89.9%.
As for `CNS(=O)(=O)c1cc(NC(=O)c2cc3ccccc3cc2O)ccc1C` + CCCCNC(=O)OCC#CI [3-iodo-2-propynyl butylcarbamate (IPBC)], the growth amounted to 90.1%.
`COCCN1\N=C(/C=C\C1=O)C(=O)N(CC2=C(F)C=CC=C2Cl)C3CC3` + CCCCNC(=O)OCC#CI [3-iodo-2-propynyl butylcarbamate (IPBC)]: the growth amounted to 89.2%.
